From PMC7342019 come the findings set out here.

Protein sequences, listed by entry. Tags and fused reporters are not part of them.
UniProt Q9KIB9: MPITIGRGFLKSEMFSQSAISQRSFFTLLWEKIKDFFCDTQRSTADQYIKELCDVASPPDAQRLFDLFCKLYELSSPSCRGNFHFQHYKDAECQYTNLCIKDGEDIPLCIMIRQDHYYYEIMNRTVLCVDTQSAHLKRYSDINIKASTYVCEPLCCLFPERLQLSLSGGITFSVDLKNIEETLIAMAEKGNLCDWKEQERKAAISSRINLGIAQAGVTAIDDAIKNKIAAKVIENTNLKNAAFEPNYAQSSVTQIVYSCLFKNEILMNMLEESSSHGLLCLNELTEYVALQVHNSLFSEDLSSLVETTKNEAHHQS

The target of this assay is GFP-SifB (Salmonella) (UniProt Q9KIB9). Nature of the assay: co-IP; HEK293ET cells co-transfected, lysed 24 h later in 150 mM NaCl, 50 mM Tris pH 7.4, 5 mM EDTA, 0.5% Triton X100, 5% glycerol; GFP-tagged protein precipitated with GFP-trap beads 2 h at 4°C; immunoblot with anti-GFP and anti-FLAG.

No constants are given. Whether binding was seen depends on the method and setting. Binding seen in cells or lysates may run through a third protein. Where a sequence is shown, tags or fusion partners need not be part of it.

B1: FLAG-TMEM127 (protein, UniProt O75204 1-238)
chain: MYAPGGAGLPGGRRRRSPGGSALPKQPERSLASALPGALSITALCTALAEPAWLHIHGGTCSRQELGVSDVLGYVHPDLLKDFCMNPQTVLLLRVIAAFCFLGILCSLSAFLLDVFGPKHPALKITRRYAFAHILTVLQCATVIGFSYWASELILAQQQQHKKYHGSQVYVTFAVSFYLVAGAGGASILATAANLLRHYPTEEEEQALELLSEMEENEPYPAEYEVINQFQPPPAYTP
Consider B1, for which the binding result is on record as “no binding”.
